Measured values from PubChem BioAssay AID493014 (National Center for Advancing Translational Sciences (NCATS), 2011).
Some of the results follow. Shown are side measurements of this screen, not its main read-out; they come without a call. The list favours compounds with an active or inconclusive main result. The note in brackets gives the kind of curve behind each potency; many fits are weak.

Test: qHTS Assay to Find Inhibitors of Chronic Active B-Cell Receptor Signaling
Conditions: ABC-DLBCL IkBa-CBG/CBR reporter, luminescence ratio (green luciferase fused to IkBa over red control in TMD8 lymphoma cells), 4 h
Procedure, shortened: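 TMD8 ABC-DLBCL cells carrying doxycycline-inducible green luciferase fused to IkappaBalpha plus unfused red luciferase were exposed to compounds (up to 46 uM) for 4 hrs at 37C. Activity came from the overlap-corrected green/red luminescence ratio.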

[1] = measured here: CBR red luminescence, cell number
[2] = measured here: IkBa-CBG green luminescence

| SMILES | AC50 [1] | AC50 [2] |
| --- | --- | --- |
| C#CCSc1nnc(-c2ccc(OC)cc2)o1 | 29.1 µM [falling, single point] |  |
| Cc1nn(-c2ccccc2)c(N)c1-c1ccccc1 | 11.2 µM [falling, partial curve] |  |
| COc1ccccc1C(=O)NCC(c1cccs1)N1CCc2ccccc21 (stereo unspecified) | 23.1 µM [falling, single point] |  |
| COc1ccc(NC(=S)Nc2ccccn2)cc1 | 17.8 µM [rising, partial curve, poor fit] | 20 µM [falling, single point] |
| Cc1nn(-c2cc(C(F)(F)F)ccc2Cl)c2nc(C(Cl)(Cl)Cl)[nH]c(=O)c12 | 6.31 µM [falling, partial curve, poor fit] |  |
| FC(F)(F)c1cnc(N2CCN(C(=S)NCc3ccccc3)CC2)c(Cl)c1 | 35.5 µM [falling, single point] |  |
| CCC(=O)Nc1sc2c(c1C(N)=O)CCN(C(C)=O)C2 | 0.206 µM [falling, full curve, poor fit] |  |
| COCCOC(=O)C1=C(C)Nc2nc(C)nn2C1c1ccc(F)cc1 (stereo unspecified) | 0.562 µM [falling, partial curve, poor fit] |  |
| O=C(Nc1nc2c(F)cc(F)cc2s1)c1ccc([N+](=O)[O-])o1 | 0.141 µM [falling, full curve, poor fit] |  |
| CCOP(=O)(c1ccccc1)c1nc(-c2ccccc2Cl)oc1N1CCCCC1 (stereo unspecified) |  | 29.1 µM [rising, single point] |
| O=C(Nc1ccc(N2CCOCC2)cc1)c1ccc2ncsc2c1 | 4.61 µM [falling, partial curve, poor fit] |  |
| CCOc1cccc(NC(=O)C2CC(=O)N(C)C(=Nc3cccc(F)c3)S2)c1 (stereo unspecified) | 14.1 µM [falling, single point] |  |
| COC1CCN(Cc2cn(Cc3ccccc3)nc2-c2cc3ccccc3o2)CC1 | 11.2 µM [falling, single point] |  |
| CCC(C)N1C(=O)S/C(=C/c2ccc3c(c2)n(C)c(=O)n3C)C1=O (stereo unspecified) | 12.6 µM [rising, partial curve, poor fit] |  |
| COc1ccc(/C=N/NC(=O)CCOc2ccccc2C)cc1OC | 29.1 µM [falling, single point] |  |
| CCSc1nc2c(c(=O)[nH]c(=O)n2C)n1C/C=C(/C)Cl | 0.82 µM [falling, partial curve, poor fit] |  |
| C/C(=N\NC(=O)c1ccc(N)cc1)C1CC1 | 10 µM [falling, partial curve, poor fit] |  |
| Cc1ccc2cccc(NC(=S)NC(=O)c3ccccc3)c2n1 | 0.126 µM [falling, full curve] |  |
| CCOC(=O)c1sc2nc(-c3ccccc3)ccc2c1N | 0.231 µM [rising, full curve, poor fit] |  |
| O=C(O)CCc1ccc(-c2ccccc2)o1 | 29.1 µM [falling, single point] |  |
| C=CCN1C(=O)C2(NC(=O)c3ccccc3N2)c2ccccc21 (stereo unspecified) | 11.2 µM [falling, partial curve, poor fit] |  |

| SMILES | AC50 [1] | AC50 [2] |
| --- | --- | --- |
| COc1ccc(NC(=O)CSc2nnc(-c3ccccn3)n2N)c(OC)c1 | 6.31 µM [falling, partial curve, poor fit] |  |
| CC1CCc2[nH]c3ccc(C(=O)NCC4CCCO4)cc3c2C1 (stereo unspecified) | 9.2 µM [rising, partial curve] |  |
| CNc1nc(SCC(=O)Nc2ccc(Cl)c(Cl)c2)nc(N2CCOCC2)n1 | 1.58 µM [rising, full curve] |  |
| COc1cc(C(=O)Nc2ccc(C(F)(F)F)cc2)ccc1OCC(=O)N1CCOCC1 | 4.61 µM [falling, partial curve] |  |
| COC(=O)c1ccc(NC(=S)Nc2ccccc2)cc1 | 29.1 µM [rising, single point] |  |
| O=C1NC(c2ccc(-c3ccccc3[N+](=O)[O-])o2)C(C(=O)c2ccccc2)C(O)(C(F)(F)F)N1 (stereo unspecified) | 20.6 µM [falling, single point] | 29.1 µM [rising, partial curve, poor fit] |
| CC1CCc2c(sc(N)c2C(=O)OC(C)C)C1 (stereo unspecified) | 1.16 µM [rising, full curve, poor fit] |  |
| N=C1S/C(=C\c2ccco2)C(=O)N1c1nccs1 | 2.51 µM [falling, full curve, poor fit] | 3.98 µM [falling, single point] |
| CCCCCCn1c(CN2CCN(CCO)CC2)nc2c1c(=O)n(C)c(=O)n2C | 2.06 µM [rising, partial curve] |  |
| CCN1C(=O)c2ccc(C(=O)NCc3ccco3)cc2C1=O | 6.31 µM [falling, full curve] |  |
| COc1ccc(CCC(=O)Nc2nnc(C(F)(F)F)s2)cc1 | 1.26 µM [rising, full curve, poor fit] |  |
| COc1cc(-c2nc(-c3ccc4c(c3)-c3ccccc3S4(=O)=O)c(-c3ccccc3)[nH]2)cc(OC)c1OC | 1.3 µM [falling, full curve] |  |
| C=CCn1c(SCC(=O)NCCO)nc2sc(C)c(C)c2c1=O |  | 17.8 µM [falling, partial curve, poor fit] |
| Cc1ccc(S(=O)(=O)N(C)C)cc1[N+](=O)[O-] | 2.24 µM [falling, partial curve, poor fit] |  |
| COc1cc(C2C(C#N)=C(C)NC(C)=C2C#N)cc(OC)c1OC | 11.6 µM [rising, partial curve] |  |
| Cc1ccc(S(=O)(=O)N2CCCCC2)cc1NC(=O)Cn1ncc(Cl)c(Cl)c1=O | 5.17 µM [falling, full curve] |  |
| Cc1c(C(=O)Nc2c(C)n(C)n(-c3ccccc3)c2=O)oc2ccccc12 | 0.0058 µM [rising, full curve] |  |
| COc1ccc(-c2csc(NS(=O)(=O)c3ccc([N+](=O)[O-])cc3)n2)cc1 |  | 16.4 µM [rising, partial curve, poor fit] |
| CC1=NN(Cc2ccccc2)C(=O)C1C(c1ccncc1)C(C#N)C#N (stereo unspecified) | 7.08 µM [falling, full curve, poor fit] |  |
| O=c1oc(-c2ccccc2NS(=O)(=O)c2ccc(F)cc2)nc2ccccc12 | 20 µM [rising, partial curve, poor fit] |  |
| Cc1ccc(OCC(=O)NC(=S)Nc2ccccn2)c(Br)c1 | 0.794 µM [rising, partial curve, poor fit] |  |

3 entries picked at random from those above, as already listed:

| SMILES | AC50 [1] | AC50 [2] |
| --- | --- | --- |
| CCN1C(=O)c2ccc(C(=O)NCc3ccco3)cc2C1=O | 6.31 µM [falling, full curve] |  |
| Cc1ccc(S(=O)(=O)N2CCCCC2)cc1NC(=O)Cn1ncc(Cl)c(Cl)c1=O | 5.17 µM [falling, full curve] |  |
| COC(=O)c1ccc(NC(=S)Nc2ccccc2)cc1 | 29.1 µM [rising, single point] |  |

Carrying on:

| SMILES | AC50 [1] | AC50 [2] |
| --- | --- | --- |
| COc1ccc(Cl)cc1NC(=S)N(Cc1ccccc1C)CC1CCC(C(=O)O)CC1 (stereo unspecified) | 3.55 µM [falling, partial curve, poor fit] | 11.2 µM [rising, partial curve, poor fit] |
| c1ccc(C2OCC3(CO2)COC(c2ccccc2)OC3)cc1 (stereo unspecified) | 14.1 µM [rising, partial curve, poor fit] |  |
| CCC(=O)Nc1c(C#N)c2nc3ccccc3nc2n1-c1ccccc1C | 6.51 µM [rising, full curve, poor fit] |  |
| O=C(CC(n1cncn1)C(Cl)(Cl)Cl)c1ccc([N+](=O)[O-])cc1 (stereo unspecified) | 0.282 µM [rising, full curve, poor fit] |  |
| CCOC(=O)c1c(S(=O)(=O)N2CCN(c3ccc(F)cc3)CC2)c(C)n(C)c1C | 1 µM [rising, full curve, poor fit] |  |
| O=[N+]([O-])c1cccnc1Oc1ccc(C2SCCS2)cc1 | 1.78 µM [rising, partial curve, poor fit] |  |
| CCOC(=O)Cc1csc(NC(=O)CSc2nnnn2-c2ccc(F)cc2)n1 | 7.08 µM [falling, partial curve, poor fit] |  |
| N#C/C(=C(/O)Cc1cccc2ccccc12)c1nc2ccccc2s1 | 1.03 µM [rising, full curve, poor fit] |  |
| CCc1nc(N2CCN(c3nc(C)cc(C)n3)CC2)c2oc3ccccc3c2n1 | 2.06 µM [rising, partial curve, poor fit] |  |
| O=C(c1cccc(F)c1)N1CCN(C(=O)c2nn3cccnc3c2Cl)CC1 | 25.9 µM [falling, partial curve, poor fit] |  |
| COc1ccccc1C1CC(c2c(-c3ccccc3)c3cc(Cl)ccc3[nH]c2=O)=NN1S(C)(=O)=O (stereo unspecified) | 7.94 µM [falling, partial curve, poor fit] |  |
| O=c1cc(-c2ccccc2)nc(SCc2ccccc2F)[nH]1 | 2 µM [rising, full curve, poor fit] |  |
| CC[C@]12c3[nH]c4ccccc4c3CCN1C(=O)C(CC(=O)NCCc1ccccn1)C[C@@H]2C(=O)N1CCN(C(=O)C2CC2)CC1 (stereo partly specified) | 4.61 µM [rising, full curve, poor fit] |  |
| COc1ccc(NC(=O)CC2C(=O)N(Cc3cccs3)C(=S)N2C(C)C)cc1 (stereo unspecified) | 14.1 µM [falling, single point] |  |
| Cc1nn(Cc2ccccc2Cl)c2sc(C(=O)Nc3nccs3)cc12 | 23.1 µM [falling, partial curve] |  |
| Cc1ccc(C(=O)N/N=C2\CC3CC=CC23)c(C)c1 (stereo unspecified) | 7.08 µM [falling, partial curve, poor fit] |  |
| C=CCNc1nc(-c2ccccc2)nc(-n2ccnc2)n1 | 28.2 µM [falling, single point] |  |
| CC(=O)N1N=C(c2ccncc2)OC12CCCC2 | 18.4 µM [rising, single point] |  |
| Cc1ccc2nc(-c3ccccc3)cc(C(=O)N3CCc4ccccc4C3)c2c1 |  | 12.6 µM [rising, partial curve, poor fit] |
| COc1ccc(OCC(O)Cn2c(N)nc3c2c(=O)[nH]c(=O)n3C)cc1 (stereo unspecified) | 1.78 µM [rising, partial curve, poor fit] |  |

Three compounds out of the list, sorted by count of non-hydrogen atoms, low to high.

| SMILES | AC50 [1] | AC50 [2] |
| --- | --- | --- |
| COc1ccc(CCC(=O)Nc2nnc(C(F)(F)F)s2)cc1 | 1.26 µM [rising, full curve, poor fit] |  |
| C=CCN1C(=O)C2(NC(=O)c3ccccc3N2)c2ccccc21 (stereo unspecified) | 11.2 µM [falling, partial curve, poor fit] |  |
| Cc1ccc2nc(-c3ccccc3)cc(C(=O)N3CCc4ccccc4C3)c2c1 |  | 12.6 µM [rising, partial curve, poor fit] |
